Publication PMC6838142, “Nano-Antagonist Alleviates Inflammation and Allows for MRI of Atherosclerosis” (Nanotheranostics, 2019)

Amino acid sequences for entries named in this document (tags omitted). A change or cut given only in a name is not applied to a line headed by its entry. Residues count along the entry.
UniProt P41597: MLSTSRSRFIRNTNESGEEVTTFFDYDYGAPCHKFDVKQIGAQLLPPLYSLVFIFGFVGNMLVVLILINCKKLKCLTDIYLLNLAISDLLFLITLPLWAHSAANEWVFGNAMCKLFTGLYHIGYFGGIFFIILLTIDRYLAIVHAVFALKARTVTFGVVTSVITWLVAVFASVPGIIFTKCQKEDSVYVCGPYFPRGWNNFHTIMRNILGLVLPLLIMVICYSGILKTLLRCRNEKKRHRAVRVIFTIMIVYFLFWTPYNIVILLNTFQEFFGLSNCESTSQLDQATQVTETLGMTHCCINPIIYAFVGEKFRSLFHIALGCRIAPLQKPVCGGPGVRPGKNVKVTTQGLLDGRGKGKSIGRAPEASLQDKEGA
UniProt P13500, residues 24-99: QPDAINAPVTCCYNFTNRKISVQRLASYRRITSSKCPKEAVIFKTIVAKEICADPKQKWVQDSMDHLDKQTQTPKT

Target: recombinant CCR2 protein (CC chemokine receptor 2) (UniProt P41597)
Experiment: ELISA; recombinant CCR2 coated at 2 µg/mL on clear plates; recombinant human CCL2 at varying concentrations in PBS added together with 1 mM free peptide (in dimethylformamide), 1 h at room temperature; detected with biotin anti-MCP-1 antibody and streptavidin-HRP; both purified

- binding: binds
Substance: recombinant human CCL2 (CC chemokine ligand 2) (from UniProt P13500 24-99)

No constants are given. Whether binding was seen depends on the method and setting. A result given as binding can be weak or reduced; the word gives no strength.
